The text below walks through data of PubChem BioAssay AID493014 (National Center for Advancing Translational Sciences (NCATS), 2011).

One may read the AC50 as the midpoint of the concentration-response curve, whichever way the signal moves.

The nature of this assay: qHTS Assay to Find Inhibitors of Chronic Active B-Cell Receptor Signaling. The settings on record: ABC-DLBCL IkBa-CBG/CBR reporter, luminescence ratio (green luciferase fused to IkBa over red control in TMD8 lymphoma cells), 4 h. The method, boiled down:
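Cell line TMD8 (human ABC DLBCL), stably expressing tet-inducible CBG68-IkBa fusion and CBR; IMDM/0.5% FBS; cpd up to 46 uM; dox induction, 4 h, 37C/5% CO2; dual luminescence; green/red ratio; MG132 control.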
Background: In qHTS, concentration-response curves come from the screen itself.

[1] abbreviates: measured here: CBR red luminescence, cell number.
The mark [2] stands for this setting: measured here: IkBa-CBG green luminescence.

Some of the results follow. These are further read-outs of the screen, such as a control signal, another cell line or another target. No call is given for them. The list favours compounds with an active or inconclusive main result. The note in brackets gives the kind of curve behind each potency; many fits are weak.

Take `O=C1c2cc(Br)ccc2OC2C=CC=CC12` (stereo unspecified): under setting [1], the AC50 was 18.4 µM [rising, partial curve, poor fit].

For the compound `O=C(COC(=O)Cc1ccsc1)Nc1ccccc1Cl`, under setting [1], the AC50 was 29.1 µM [rising, single point].

As to `COc1ccc(C(=O)c2cc([N+](=O)[O-])ccc2N2CCCC2)cc1`, under setting [2], the AC50 is 18.4 µM [falling, partial curve, poor fit].

Take `O=C(Nc1cc(Cl)ccc1O)c1snnc1-c1ccccc1`: the AC50 under setting [1] was 17.8 µM [falling, partial curve].

With `Cc1nnnn1/C(=C\c1ccccc1)C(=O)OCC(=O)NC1CCCCC1`, under setting [1], the AC50 is 2.06 µM [falling, full curve].

Turning to `CCCNC(=O)c1cc2ccccc2c(=O)o1`, under setting [1], the AC50 was 23.1 µM [falling, single point].

Regarding `COc1ccc(Nc2nc(-c3cccnc3)nc3ccccc23)cn1`, the AC50 under setting [1] is 22.4 µM [falling, partial curve, poor fit].

`C=CCn1c(C)nc2c(sc3nc4c(cc32)COC(C)(C)C4)c1=O`: under setting [1], the AC50 is 11.2 µM [falling, partial curve, poor fit].

`COc1ccc(NC(=O)c2cc(-c3cc(C)cc(C)c3O)n[nH]2)cc1Cl`: the AC50 under setting [1] was 20.6 µM [falling, partial curve].

For the compound `COc1cc(/C=N/Nc2nc3ccccc3[nH]2)ccc1O`, the AC50 under setting [1] is 16.4 µM [falling, single point].

For the compound `Clc1ccc(-n2nnc(-c3cccnc3Cl)n2)cn1`, the half-maximal activity concentration (AC50) under setting [1] was 1.58 µM [rising, partial curve].

In the case of `O=C1CSc2ccc(S(=O)(=O)N3CCN(c4ccccc4F)CC3)cc2N1`, under setting [1], the AC50 was 35.5 µM [falling, single point].

With `COc1cc(OC)c2ccc(=O)oc2c1C(CC(=O)N1CCN(c2ccccc2)CC1)c1ccc2c(c1)OCO2` (stereo unspecified), the AC50 under setting [1] was 2.24 µM [falling, partial curve].

Take `COc1cc(/C=C/C(=O)OCC(=O)N2c3ccccc3NC(=O)C2(C)C)cc(OC)c1OC`: under setting [1], the AC50 is 2.31 µM [rising, partial curve, poor fit].

With `Cc1cc(OC(C)C(=O)NC2CC(C)(C)NC(C)(C)C2)c2c(C)cc(=O)oc2c1` (stereo unspecified), the AC50 under setting [1] is 7.08 µM [rising, full curve].

Turning to `C#CCOCCOCCOCCNc1nc(N2CCN(C(=O)CCCCCCCCCCNC(=O)Cn3cc(CCCCCN)nn3)CC2)nc(N2CCN(C(=O)CCCCCCCCCCNC(=O)[C@@H]([C@H](C)O)n3cc(C)nn3)CC2)n1`, under setting [1], the AC50 is 18.4 µM [rising, single point].

With `Cc1cccc(-n2ncc3c(Nc4c(C)cc(C)cc4C)ncnc32)c1`, the AC50 reads like this: under setting [1], 2.82 µM [rising, full curve, poor fit]; under setting [2], 8.91 µM [falling, partial curve, poor fit].

Take `Cc1ccc(C2NC(=O)c3c(sc(C)c3C)N2)c(O)c1` (stereo unspecified): under setting [1], the AC50 was 29.1 µM [falling, single point].

Consider `COc1ccccc1NC(=S)NC(=O)C(C)C`, for which the AC50 under setting [1] is 10 µM [falling, partial curve, poor fit].

As for `O=C(Nc1ccc(F)cc1)c1ccc2nc[nH]c2c1`, under setting [1], the AC50 is 11.2 µM [falling, partial curve].

As to `CCn1c(SCC(=O)c2ccc3c(c2)OCCO3)nnc1-c1ccco1`, the AC50 under setting [1] was 1.64 µM [rising, partial curve].

Regarding `CS(=O)(=O)c1cccc(C(=O)NCc2ccc(F)cc2)c1`, under setting [1], the AC50 was 29.1 µM [rising, single point].

For the compound `COc1ccc2oc(C(=O)NCC3CCCO3)c(C)c2c1` (stereo unspecified), the half-maximal activity concentration (AC50) under setting [1] is 10 µM [falling, partial curve, poor fit].

Consider `CCN(CC)c1cc2nonc2c2nonc12`, for which the AC50 under setting [1] is 2.51 µM [rising, full curve, poor fit].

Consider `CCN(CC)c1ccc(NC(=O)CC2Oc3ccccc3NC2=O)c(C)c1` (stereo unspecified), for which the AC50 under setting [1] is 14.6 µM [falling, partial curve, poor fit].

With `COc1ccc(NC(=O)/C(Cl)=C(/Cl)S(=O)Cc2ccccc2)cn1` (stereo unspecified), the AC50 reads like this: under setting [1], 2.59 µM [falling, full curve]; under setting [2], 2.91 µM [rising, full curve, poor fit].

As for `CC1CCCCC1NC(=O)Cn1cnc2ccccc2c1=O` (stereo unspecified), the AC50 under setting [1] is 3.16 µM [rising, single point].

`COc1ccc(OC)c(NC(=O)N2CCCC(C(=O)c3ccccc3OC)C2)c1` (stereo unspecified): under setting [1], the AC50 was 6.31 µM [rising, single point].

In the case of `Cc1ccc(C(=O)OCC(=O)Nc2cc(F)ccc2F)cc1NC(=O)c1ccco1`, the AC50 under setting [1] was 0.116 µM [falling, full curve, poor fit].

For the compound `COC(C(=O)Nc1ccc(S(=O)(=O)Nc2c(C)cccc2C)cc1)c1ccccc1` (stereo unspecified), the AC50 under setting [1] is 3.66 µM [rising, partial curve, poor fit].

With `Cc1cccn2c(NC(=O)c3ccccc3F)c(-c3ccccc3)nc12`, under setting [1], the AC50 was 35.5 µM [rising, single point].

For the compound `Cc1cccc(-c2cc3nc(-c4ccccc4)cc(N4CCC5(CC4)OCCO5)n3n2)c1`, the AC50 under setting [2] is 25.9 µM [rising, partial curve, poor fit].

Turning to `COc1ccccc1N=c1scc(-c2ccc3c(c2)NC(=O)CO3)n1CC1CCCO1` (stereo unspecified), under setting [1], the AC50 is 0.517 µM [rising, full curve, poor fit].

`Cc1ccsc1C1C(C#N)=C(N)OC2=C1C(=O)CC(C)C2` (stereo unspecified): under setting [2], the AC50 was 35.5 µM [rising, partial curve, poor fit].

For `COc1ccccc1N1C(=N)S/C(=C\c2ccc(-c3ccccc3C(=O)O)o2)C1=O`, the AC50 under setting [1] is 1.84 µM [falling, single point].

On to `Cc1ccc(N/N=C(\C#N)C(=N)N2CCCCC2)cc1`, for which the AC50 under setting [1] was 1.26 µM [rising, full curve, poor fit].

`CCCCOC(=O)Nc1ccc(S(=O)(=O)Nc2ccc([N+](=O)[O-])cc2)cc1`: the AC50 under setting [1] was 5.17 µM [falling, full curve].

Consider `COc1ccc(N/C=C/C(=O)C(C)(C)C)cc1`, for which the AC50 under setting [1] was 3.16 µM [rising, full curve, poor fit].

Consider `CCCCNC(=S)Nc1cccc(C(C)=O)c1`, for which, under setting [1], the AC50 was 29.1 µM [rising, single point].

Turning to `CC1CCCN(c2nc(N(C)c3ccccc3)nc(N)c2[N+](=O)[O-])C1` (stereo unspecified), the AC50 under setting [1] was 8.91 µM [rising, partial curve, poor fit].

With `Cc1ccc(C(=O)Oc2ccc3c(c2)ncn3C)cc1`, the AC50 under setting [1] is 10.3 µM [rising, partial curve, poor fit].

Regarding `COC(=O)CNC(=O)Cc1c(F)cccc1Cl`, the AC50 under setting [1] was 0.82 µM [rising, full curve, poor fit].

For the compound `O=C(COc1ccccc1-c1ccccc1)N/N=C/c1cccc2ccccc12`, under setting [2], the AC50 was 3.55 µM [falling, full curve].

As to `Cc1ccc(C)c(N2CCN(C(=O)COc3cc(=O)n(C)c4ccccc34)CC2)c1`, the AC50 under setting [1] was 3.16 µM [rising, single point].

Take `CCCC(=O)Nc1ccc(Cl)c(NC(=S)NC(=O)C(C)C)c1`: the half-maximal activity concentration (AC50) under setting [1] was 4.47 µM [rising, single point].

In the case of `CC(C)C(=O)Nc1ccc(-c2ccc3nncn3n2)cc1`, under setting [1], the AC50 is 11.2 µM [rising, partial curve].

For `Cc1c(CN2CCC(CO)(CCOc3ccccc3)CC2)[nH]c2c(Cl)cccc12`, the AC50 under setting [1] was 35.5 µM [falling, single point].

With `O=C1Nc2cc(Cl)ccc2Oc2cc(Oc3ccccc3)ccc21`, the AC50 under setting [1] was 8.91 µM [rising, partial curve, poor fit].

In the case of `COc1ccc(NC(=O)/C(Cl)=C(/Cl)S(=O)Cc2ccc(Cl)cc2)cn1` (stereo unspecified), the AC50 reads like this: under setting [1], 6.31 µM [falling, full curve, poor fit]; under setting [2], 7.08 µM [rising, full curve, poor fit].

In the case of `COc1ccccc1CNC(=O)c1cc(=O)c2ccccc2o1`, the AC50 under setting [1] is 35.5 µM [falling, single point].

Consider `O=C(CSc1nc2c(c(=O)[nH]1)CCC2)Nc1ccccc1Cl`, for which the half-maximal activity concentration (AC50) under setting [1] is 6.31 µM [falling, single point].

Regarding `O=[N+]([O-])c1c(NCc2ccccc2)cc(N2CCc3ccccc3C2)c2nonc12`, the AC50 under setting [1] was 0.058 µM [rising, full curve, poor fit].

As to `Cc1ccc(NC(=O)CSc2nnc(CNC(=O)c3ccco3)n2C)cc1`, under setting [1], the AC50 was 0.231 µM [rising, full curve, poor fit].

For the compound `O=C(CCC(=O)Nc1ccc(Cl)cc1)N/N=C/c1ccc2c(c1)OCO2`, under setting [1], the AC50 is 20 µM [falling, partial curve, poor fit].

`Cc1ccc(CCNC(=O)CCc2nc3ccccc3[nH]2)cc1`: the AC50 under setting [1] was 4.11 µM [rising, full curve].

With `Cc1c(C)c2ccc(OCC(=O)NCCN3CCOCC3)c(C)c2oc1=O`, under setting [1], the AC50 is 7.08 µM [rising, partial curve, poor fit].

With `Cc1ccc(C(=O)c2sc3nsc(C)c3c2N)cc1`, under setting [1], the AC50 is 0.517 µM [rising, partial curve, poor fit].

`CCc1ccc(NC(=O)CCNS(=O)(=O)c2cccc3nonc23)cc1`: the AC50 under setting [1] was 25.9 µM [rising, partial curve, poor fit].

With `Cc1nc2sc3c(c2c(=O)o1)CC(C)(C)OC3`, the AC50 under setting [1] is 0.0731 µM [rising, full curve, poor fit].

`COc1ccc(C(=S)NC2CCCCC2)cc1`: under setting [1], the AC50 was 7.94 µM [rising, partial curve, poor fit].

Turning to `N=C1/C(=C/c2ccc(OCc3ccccc3F)cc2)C(=O)N=C2SC(CC(=O)N3CCOCC3)=NN12`, the AC50 under setting [1] is 35.5 µM [rising, single point].

As to `CCOC(=S)SCC(=O)Nc1nccs1`, the AC50 under setting [1] is 7.94 µM [falling, partial curve].

With `O=C(CN1c2cccc3cccc(c23)S1(=O)=O)Nc1ccccc1`, under setting [1], the concentration at half-maximal activity (AC50) is 1.26 µM [rising, full curve, poor fit].
